Assay results: PMC12595034

Amino acid sequences for entries named in this document (tags omitted). A change or cut given only in a name is not applied to a line headed by its entry.
UniProt F4IWJ9: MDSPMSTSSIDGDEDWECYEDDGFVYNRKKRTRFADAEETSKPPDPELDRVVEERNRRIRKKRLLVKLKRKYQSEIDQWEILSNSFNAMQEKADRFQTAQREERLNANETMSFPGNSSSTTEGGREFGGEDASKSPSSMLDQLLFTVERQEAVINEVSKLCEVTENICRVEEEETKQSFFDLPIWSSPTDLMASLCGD

Assays:
Test in all cases: affinity purification with mass spectrometry; GSrhino-tagged bait expressed in Arabidopsis cell suspension culture; pull-down in triplicate for each bait, on-bead digest, Q Exactive; hits filtered by NSAF against a large control AP-MS dataset of non-related baits
[1] = biological target: CSM1-CGSrhino (Arabidopsis thaliana)
[2] = biological target: NGSrhino-KNL1 (Arabidopsis thaliana)
[3] = biological target: NGSrhino-CSM1 (Arabidopsis thaliana)
[4] = biological target: DSN1-CGSrhino (Arabidopsis thaliana) (UniProt F4IWJ9)
[5] = biological target: NGSrhino-DSN1 (Arabidopsis thaliana) (UniProt F4IWJ9)

Measured: binding

B1: SPC25 (protein, UniProt Q93VK9 1-315)
chain: MEQISNIAGGDTTKETMASLGLICEKDIHEQRLKIDSFIASPFRRSMNSLVERAQATAQSQVELMNLKADLREAEDELVKVLAVKTRKEARQMGIRDSISATQSRIEVLRRNLQLQKSKKDDSVRIISQQLQALSKSKDNAGKVTEDKADIHEAISWYNHALGFHVEAGHGVKFTFTNIDAKRPTREFSFTVHYGNDIYTLLDSDLQLDYINEMVQELNKTNDLFRFVRLMREQFLKSTLSELPTHSGQLQQETSAISASAPAISFSTDTNMSTPENKRSKVQVNRRQKRGSESPLLAPVSTSATRRSSRFKGKK
binds: [1] | [2] | [3]

B2: Mitochondrial ATPase (protein, UniProt P93303 1-158)
chain: MPQLDKFTYFSQFFWLCLFFFTFYIFICNDGDGVLGISRILKLRNQLLSHRGKTIRSKDPNSLEDLLRKGFSTGVSYMYASLFEVSQWCKAVDLLGKRRKITLISCFGEISGSRGMERNILYNISKSSPSNTGRWITCRNCRNDIMLIHVVHGQGSIK
binds: [1]

B3: MUN/SPC24 (protein, UniProt Q67XT3 1-201)
chain: MGNASENFDIEDLMSYGDDLINLLNVKNGFDIISQSSEQFKALNFACHEDFNQIQGSIEDCKTKLYACKKKTEEAYSDIAAEDEIERLQKELDEEMEREFKLKDELRLVADELKDLNAQLSSIDEHKQSTKRKVRDDLRAEKKLSMYASVTNVIPDIDDPSKISGYMVDREKRLIEKFQFETNKMTAYETCNSIWSIINKQ
binds: [1] | [2] | [3]

B4: CENPC (protein, UniProt Q66LG9 1-705)
chain: MADVSRSSSLYTEEDPLQAYSGLSLFPRTLKSLSNPLPPSYQSEDLQQTHTLLQSMPFEIQSEHQEQAKAILEDVDVDVQLNPIPNKRERRPGLDRKRKSFSLHLTTSQPPPVAPSFDPSKYPRSEDFFAAYDKFELANREWQKQTGSSVIDIQENPPSRRPRRPGIPGRKRRPFKESFTDSYFTDVINLEASEKEIPIASEQSLESATAAHVTTVDREVDDSTVDTDKDLNNVLKDLLACSREELEGDGAIKLLEERLQIKSFNIEKFSIPEFQDVRKMNLKASGSNPPNRKSLSDIQNILKGTNRVAVRKNSHSPSPQTIKHFSSPNPPVDQFSFPDIHNLLPGDQQPSEVNVQPIAKDIPNTSPTNVGTVDVASPFNDSVVKRSGEDDSHIHSGIHRSHLSRDGNPDICVMDSISNRSSAMLQKNVDMRTKGKEVDVPMSESGANRNTGDRENDAEINEETDNLERLAECASKEVTRPFTVEEDSIPYQQGASSKSPNRAPEQYNTMGGSLEHAEHNQGLHEEENVNTGSASGLQVENAPEVHKYSHKQTNKRRKRGSSDSNVKKRSKTVHGETGGDKQMKTLPHESRAKKQTKGKSNEREEKKPKKTLTHEGKLFSCRKSLAAAGTKIEGGVRRSTRIKSRPLEYWRGERFLYGRIHESLTTVIGIKYASPGEGKRDSRASKVKSFVSDEYKKLVDFAALH
binds: [1] | [2] | [3]

B5: MIS12 (protein, UniProt Q2V0Z5 1-238)
chain: MEGSKSEAVFDSMNLNPQIFINEAINSVEDYVDQAFDFYARDASKSLKIKGSDKQKSQALSNGIARVRGLLLSVIDNRLKLWESYSLRFCFAVPDGFVLPKSEESSSVHQDGLYDLELDAELDSLRDKLNVVGKRSVELDSELQALERSSVSRERSLRLVNEALELYDESSMDEIFKEMTKMASELRASVERLKTRRMKASESAKVKRLKNHGKEFSAMTFDGKLEDLEKFQAELRKM
binds: all assays above

B6: NDC80 (protein, UniProt Q9M1G5 1-568)
chain: MRGGAAGKRRTTVGFGGAPPPPPPSIEQQRHLFNSRDSDASFASSRPSSIGLGGRGASDDRSSMIRFINAFLSTHNFPISIRGNPVPSVKDISETLKFLLSALDYPCDSIKWDEDLVFFLKSQKCPFKITKSSLKAPNTPHNWPTVLAVVHWLAELARFHQHLVSNSTSVPEDNSMNFFAIQSFGHFIRGEDDKVNDLDSQFLGKLEAEKTSVAETISGCEKISGELEAKLESLRKGPSKKESLEKVKADLENDVNKFRTIVVEYTDRNPAMEKVVEEKAKELKAKEEERERISVENKELKKSVELQNFSAADVNRMRRELQAVERDVADAEVARDGWDQKAWELNSQIRNQFHQIQTLAIDCNQALRRLKLDIQFAVNERGETPAAVMGVDYKSVVKPALCSLCDGIKGSSAEKVEELVTLQHHKSEMASKIESKRSLLGSIQLQINDLEEKMKLVKKETQELSTKCDLEAKTLVESVKAEALNLEVVEKEAAEFVKASELRLQEAVKESEEEVQACAAQLFALIDSISKQKEYMDSKISEIKTGVADTASAVSEIYKANFKKNLGI
binds: all assays above

B7: BUB3.3 (protein, UniProt F4I241 1-314)
chain: MSGDRLEFENPIEDAVSRLRFSPQSNNLLVASWDSYLRLYDVESSSLSLELNSQAALLDCCFENESTSFTSGSDGFIRRYDLNAGTVDTIGRHDDISTSIVYSYEKGEVISTGFDEKIKFWDTRQRESLVFSTDAGGAVGCVTVSGNNLVVCVDASMHIYDLRNLDEAFQSYASQVEVPIRCITSVPYSRGYAVGSVDGRVAVDFPNTSCSSEIKYSFRCHPKSRNGRLDGVCINAIEFSPCGSGTFVTGDNEGYVISWNAKSRRRLNELPRYSNSIASLAFDHTGELLAIASSHTYQDAKEKEEAPQVFIHRL
binds: [2] | [4] | [5]

B8: NUF2 (protein, UniProt Q8RXJ0 1-440)
chain: MSAYEYPRLSRSDIITALKDAQIASVTETDLKTPTSDFVSELYTRILIYLDALDEEEKGQVDFEALEQLENPDHHATSMQAMKLYCKVKDMLEMLDCPLPISFKDLLRPESSRTEFFISALLNYGLYKDSKMDLIRPKAEELGLLDEQRKQCEAKVAQLNAEIGEFDEAVERDLPFVQELEANIEQLNKKILELNNQQMSLRATFQKMREKSTQMDNEISKAEFDLVETVQENANLRSQIVQSPDKLQGALEEKKLVLGETKKAEQSAMVTFQEKAAILEVFEKALKKILKSSSQLQLINEQVTNAKTVEKEFKALKDKLSEDGVAYKSLEAKVVERERIVEQLNESLKQLEKEKAVMFDDWTKQLNELKVEVESRRRELETRQTNVESVVAMVDDNTAKTNQVRQSGEAKVKKLAAKYEEIVKQFHEYTVSFDAFLPSL
binds: all assays above

These are yes or no findings as the source states them, for the method shown. In cells and extracts the contact can be indirect. Here binding means that the protein was enriched with, or labelled near, the bait; the list need not be complete.
